Test results: PMC10707181, “Neuronal Scaffold Protein ARMS Interacts with Synaptotagmin-4 C2AB through the Ankyrin Repeat Domain with an Unexpected Mode” (International Journal of Molecular Sciences, 2023)
Results are given in words; binding and its absence hold for the method and conditions named.

Protein sequences, listed by entry. Tags and fused reporters are not part of them. Residues count along the entry.
UniProt P21579, residues 140-422: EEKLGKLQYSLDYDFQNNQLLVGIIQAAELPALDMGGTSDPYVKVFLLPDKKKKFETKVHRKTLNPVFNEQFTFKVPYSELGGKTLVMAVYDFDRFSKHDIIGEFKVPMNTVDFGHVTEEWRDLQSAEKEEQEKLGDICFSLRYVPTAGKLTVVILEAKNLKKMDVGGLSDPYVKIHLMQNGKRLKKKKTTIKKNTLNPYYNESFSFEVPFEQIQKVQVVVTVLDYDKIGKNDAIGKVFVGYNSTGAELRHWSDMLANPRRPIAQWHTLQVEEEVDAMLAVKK

T1: Syt4 linker (residues 41–150) (human) (UniProt Q9H2B2)
T1 sequence: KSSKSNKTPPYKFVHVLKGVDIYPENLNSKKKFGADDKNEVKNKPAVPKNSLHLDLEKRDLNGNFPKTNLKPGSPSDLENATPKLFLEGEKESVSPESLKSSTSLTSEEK

T2: Syt3 C2AB (residues 292–587) (human) (UniProt Q9BQG1)
T2 sequence: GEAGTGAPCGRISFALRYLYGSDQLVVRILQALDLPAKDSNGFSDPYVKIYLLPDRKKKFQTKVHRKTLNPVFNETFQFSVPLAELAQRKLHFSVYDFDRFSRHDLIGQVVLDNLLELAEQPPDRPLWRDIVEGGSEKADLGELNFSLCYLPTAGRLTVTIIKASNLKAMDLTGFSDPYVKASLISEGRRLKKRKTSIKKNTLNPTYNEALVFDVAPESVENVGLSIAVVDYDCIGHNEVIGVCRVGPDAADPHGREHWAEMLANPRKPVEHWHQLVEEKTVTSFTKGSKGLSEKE

T3: Syt4 132–425 (human, UniProt Q9H2B2-1 132-425)
T3 chain: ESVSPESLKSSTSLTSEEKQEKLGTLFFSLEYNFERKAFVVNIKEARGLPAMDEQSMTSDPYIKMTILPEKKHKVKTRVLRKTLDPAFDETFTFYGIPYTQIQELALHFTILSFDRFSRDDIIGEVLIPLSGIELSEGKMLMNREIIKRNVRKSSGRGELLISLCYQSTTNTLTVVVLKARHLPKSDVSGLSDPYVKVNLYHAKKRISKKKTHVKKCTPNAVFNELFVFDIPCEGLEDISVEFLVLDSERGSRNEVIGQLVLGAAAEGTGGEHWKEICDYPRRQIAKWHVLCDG

T4: Syt4 C2A-L (residues 151–290) (human) (UniProt Q9H2B2)
T4 sequence: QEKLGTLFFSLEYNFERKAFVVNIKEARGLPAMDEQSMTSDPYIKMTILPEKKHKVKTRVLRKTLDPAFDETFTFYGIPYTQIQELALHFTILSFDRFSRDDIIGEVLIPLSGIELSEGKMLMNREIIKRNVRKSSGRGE

T5: Syt4 L-C2B (residues 279–425) (human) (UniProt Q9H2B2)
T5 sequence: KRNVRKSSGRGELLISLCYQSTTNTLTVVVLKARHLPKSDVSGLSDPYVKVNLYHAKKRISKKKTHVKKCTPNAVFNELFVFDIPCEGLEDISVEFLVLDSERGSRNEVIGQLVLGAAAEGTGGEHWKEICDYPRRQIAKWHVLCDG

T6: Syt4 C2AB (residues 151–425) (human, UniProt Q9H2B2-1 151-425)
T6 construct: also called Syt4 CAB; source: E. coli BL21 (DE3), purified (Ni-NTA, size-exclusion chromatography)
T6 sequence (looked up): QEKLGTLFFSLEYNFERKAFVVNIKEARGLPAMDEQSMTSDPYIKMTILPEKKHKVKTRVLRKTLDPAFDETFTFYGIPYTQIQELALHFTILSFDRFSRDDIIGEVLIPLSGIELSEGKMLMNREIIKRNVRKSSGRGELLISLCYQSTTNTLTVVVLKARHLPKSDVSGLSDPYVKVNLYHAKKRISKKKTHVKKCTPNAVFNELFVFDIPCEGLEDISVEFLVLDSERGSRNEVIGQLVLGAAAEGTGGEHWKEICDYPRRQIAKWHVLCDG


How the values were obtained:
[1] = molecular target: T1, Syt4 linker (residues 41–150) (human); assay: SEC; analytical gel filtration chromatography (AGFC) of the single proteins and their mixture (1:1 told for ARMS NT and Syt4 CD); Superose 12 or Superdex 200 increase column; 50 mM Tris, 100 mM NaCl, 1 mM EDTA, 1 mM DTT, pH 7.8; both purified
[2] = molecular target: Syt1 C2AB (residues 140–422) (human) (UniProt P21579); assay: as above
[3] = molecular target: T2, Syt3 C2AB (residues 292–587) (human); assay: as above
Syt4 132–425 = molecular target: T3, Syt4 132–425; assay: condition: ARMS 200 μM in the syringe, Syt4 20 μM in the cell; ITC; ARMS proteins (200 μM) in the syringe, Syt4 proteins (20 μM) in the cell; 25 °C; 50 mM Tris, 100 mM NaCl, 1 mM EDTA, 1 mM DTT, pH 7.8; one-site binding model; both purified
[4] = molecular target: T4, Syt4 C2A-L (residues 151–290) (human); assay: SEC; analytical gel filtration chromatography (AGFC) of the single proteins and their mixture (1:1 told for ARMS NT and Syt4 CD); Superose 12 or Superdex 200 increase column; 50 mM Tris, 100 mM NaCl, 1 mM EDTA, 1 mM DTT, pH 7.8; both purified
[5] = molecular target: T5, Syt4 L-C2B (residues 279–425) (human); assay: as above
[6] = molecular target: T6, Syt4 C2AB (residues 151–425); assay: as above

Row | Binder | binding (Syt4 132–425) | binding [6] | other results
1 | ARMS protein N-terminal region (NT, residues 1–455) (domain or fragment, UniProt Q9EQG6 1-455) MSVLISQSVINYVEEENIPALKALLEKCKDVDERNECGQTPLMLAAEQGNVEIVKELLKNGANCNLEDLDNWTALISASKEGHIHIVEELLKSGASLEHRDMGGWTALMWACYKGRTDVVELLLSHGANPSVTGLYSVYPIIWAAGRGHADIVHLLLQNGAKVNCSDKYGTTPLVWAARKGHLECVKHLLAMGADVDQEGANSMTALIVAVKGGYTQSVKEILKRNPNVNLTDKDGNTALMIASKEGHIEIVQDLLDAGTYVNIPDRSGDTVLIGAVRGGHVEIVRALLQKYADIDIRGQDNKTALYWAVEKGNATMVRDILQCNPDTEICTKDGETPLIKATKMRNIEVVELLLDKGAKVSAVDKKGDTPLHVAIRGRSRRLAELLLRNPKDGRLLYRPNKAGETPYNIDCSHQKSILTQIFGARHLSPTETDGDMLGYDLYSSALADILSEPT | – | – | binding [1]: no binding; binding [2]: no binding; binding [3]: no binding
2 | ARMS R1-11 bearing the E14K and E15K variants (domain or fragment, UniProt Q9EQG6 1-365) MSVLISQSVINYVKKENIPALKALLEKCKDVDERNECGQTPLMLAAEQGNVEIVKELLKNGANCNLEDLDNWTALISASKEGHIHIVEELLKSGASLEHRDMGGWTALMWACYKGRTDVVELLLSHGANPSVTGLYSVYPIIWAAGRGHADIVHLLLQNGAKVNCSDKYGTTPLVWAARKGHLECVKHLLAMGADVDQEGANSMTALIVAVKGGYTQSVKEILKRNPNVNLTDKDGNTALMIASKEGHIEIVQDLLDAGTYVNIPDRSGDTVLIGAVRGGHVEIVRALLQKYADIDIRGQDNKTALYWAVEKGNATMVRDILQCNPDTEICTKDGETPLIKATKMRNIEVVELLLDKGAKVSAVD | no binding | – | –
3 | ARMS R1-11 E15K (domain or fragment, UniProt Q9EQG6 1-365) MSVLISQSVINYVEKENIPALKALLEKCKDVDERNECGQTPLMLAAEQGNVEIVKELLKNGANCNLEDLDNWTALISASKEGHIHIVEELLKSGASLEHRDMGGWTALMWACYKGRTDVVELLLSHGANPSVTGLYSVYPIIWAAGRGHADIVHLLLQNGAKVNCSDKYGTTPLVWAARKGHLECVKHLLAMGADVDQEGANSMTALIVAVKGGYTQSVKEILKRNPNVNLTDKDGNTALMIASKEGHIEIVQDLLDAGTYVNIPDRSGDTVLIGAVRGGHVEIVRALLQKYADIDIRGQDNKTALYWAVEKGNATMVRDILQCNPDTEICTKDGETPLIKATKMRNIEVVELLLDKGAKVSAVD | no binding | – | –
4 | ARMS R1-11 W72Q (domain or fragment, UniProt Q9EQG6 1-365) MSVLISQSVINYVEEENIPALKALLEKCKDVDERNECGQTPLMLAAEQGNVEIVKELLKNGANCNLEDLDNQTALISASKEGHIHIVEELLKSGASLEHRDMGGWTALMWACYKGRTDVVELLLSHGANPSVTGLYSVYPIIWAAGRGHADIVHLLLQNGAKVNCSDKYGTTPLVWAARKGHLECVKHLLAMGADVDQEGANSMTALIVAVKGGYTQSVKEILKRNPNVNLTDKDGNTALMIASKEGHIEIVQDLLDAGTYVNIPDRSGDTVLIGAVRGGHVEIVRALLQKYADIDIRGQDNKTALYWAVEKGNATMVRDILQCNPDTEICTKDGETPLIKATKMRNIEVVELLLDKGAKVSAVD | no binding | – | –
5 | ARMS ankyrin repeats 1–11 (R1-11, residues 1–365) (domain or fragment, rat, UniProt Q9EQG6 1-365, looked up, ARMS (Kidins220), rat, UniProt Q9EQG6, residues 1-365: ankyrin repeats 1-11; also called ARMS R1-11; ARMS R1-11 WT; source: E. coli BL21 (DE3), purified (Ni-NTA, size-exclusion chromatography)) MSVLISQSVINYVEEENIPALKALLEKCKDVDERNECGQTPLMLAAEQGNVEIVKELLKNGANCNLEDLDNWTALISASKEGHIHIVEELLKSGASLEHRDMGGWTALMWACYKGRTDVVELLLSHGANPSVTGLYSVYPIIWAAGRGHADIVHLLLQNGAKVNCSDKYGTTPLVWAARKGHLECVKHLLAMGADVDQEGANSMTALIVAVKGGYTQSVKEILKRNPNVNLTDKDGNTALMIASKEGHIEIVQDLLDAGTYVNIPDRSGDTVLIGAVRGGHVEIVRALLQKYADIDIRGQDNKTALYWAVEKGNATMVRDILQCNPDTEICTKDGETPLIKATKMRNIEVVELLLDKGAKVSAVD | – | – | binding [4]: no binding; binding [5]: no binding
6 | ARMS R1-6 (residues 1–191) (domain or fragment, UniProt Q9EQG6 1-191) MSVLISQSVINYVEEENIPALKALLEKCKDVDERNECGQTPLMLAAEQGNVEIVKELLKNGANCNLEDLDNWTALISASKEGHIHIVEELLKSGASLEHRDMGGWTALMWACYKGRTDVVELLLSHGANPSVTGLYSVYPIIWAAGRGHADIVHLLLQNGAKVNCSDKYGTTPLVWAARKGHLECVKHLLA | – | no binding | –
7 | ARMS R1-5 (residues 1–160) (domain or fragment, UniProt Q9EQG6 1-160) MSVLISQSVINYVEEENIPALKALLEKCKDVDERNECGQTPLMLAAEQGNVEIVKELLKNGANCNLEDLDNWTALISASKEGHIHIVEELLKSGASLEHRDMGGWTALMWACYKGRTDVVELLLSHGANPSVTGLYSVYPIIWAAGRGHADIVHLLLQNG | – | no binding | –
8 | ARMS R2-11 protein (residues 35–365) (domain or fragment, UniProt Q9EQG6 35-365) NECGQTPLMLAAEQGNVEIVKELLKNGANCNLEDLDNWTALISASKEGHIHIVEELLKSGASLEHRDMGGWTALMWACYKGRTDVVELLLSHGANPSVTGLYSVYPIIWAAGRGHADIVHLLLQNGAKVNCSDKYGTTPLVWAARKGHLECVKHLLAMGADVDQEGANSMTALIVAVKGGYTQSVKEILKRNPNVNLTDKDGNTALMIASKEGHIEIVQDLLDAGTYVNIPDRSGDTVLIGAVRGGHVEIVRALLQKYADIDIRGQDNKTALYWAVEKGNATMVRDILQCNPDTEICTKDGETPLIKATKMRNIEVVELLLDKGAKVSAVD | – | no binding | –
